Source: PubChem BioAssay AID248 (DTP/NCI, 2004)
The list shows only some results of the screen, not a fair sample: it gathers tests that were run many times, whatever their T/C, doses with no T/C, and many T/C values between a quarter and a half above the control. Other doses and runs of a compound stand elsewhere. T/C is the treated group as % of the vehicle group. Some doses have a count of surviving animals in place of a T/C: the source holds a T/C of zero for them, seemingly a mark for toxic or unscored doses. Some doses without a T/C left all or most animals alive at the check, yet need not have been tolerated: the source hardly ever lists a survival T/C far under the control, and the zero likely stands for such cases as well. Survivors were counted at the toxicity check, usually on the fifth day, unless a day is given; later deaths do not show. Schedule codes are those of the source, taken here to give the interval after Q, in days (D) or hours (H), and the number of doses after X. Some schedules carry Z or #; the key to these is not given. For survival time, this PubChem deposit counts one and a half times the control or more as active, and values a quarter to a half above the control carry no call in these data; other NCI protocols may use other cut-offs. Some doses were run more than once; their values stand side by side, smallest first.

Test system: L1210 leukemia ip in BDF1 mice, survival T/C
Experiment: NCI In Vivo Anticancer Drug Screen. Data for tumor model L1210 Leukemia (intraperitoneal) in B6D2F1 (BDF1) mice
Settings: higher T/C = longer survival
[1] = T/C endpoint: mean survival time, dose: 50.0 mg/kg/injection, schedule: Q01DX009 (ip), vehicle: saline

In the case of `O=C(NP(=O)(N1CC1)N1CC1)OCc1ccccc1`, the T/C (T/C endpoint: mean survival time, dose: 6.0 mg/kg/injection, schedule: Q01DX Z (ip), vehicle: saline) is reported as 148 % of control, the survivor count (T/C endpoint: mean survival time, dose: 10.0 mg/kg/injection, schedule: Q01DX006 (iv), vehicle: clinical formulation) is reported as 6 of 6 and the survivor count (T/C endpoint: mean survival time, dose: 10.0 mg/kg/injection, schedule: Q01DX Z (ip), vehicle: clinical formulation) is reported as 6 of 6. The T/C (T/C endpoint: mean survival time, dose: 12.0 mg/kg/injection, schedule: Q01DX Z (ip), vehicle: saline) was 125 and 129 % of control, the survivor count (T/C endpoint: mean survival time, dose: 20.0 mg/kg/injection, schedule: Q01DX006 (iv), vehicle: clinical formulation) was 5 of 6 and the survivor count (T/C endpoint: mean survival time, dose: 20.0 mg/kg/injection, schedule: Q01DX Z (ip), vehicle: clinical formulation) was 6 of 6. For the same compound, the T/C (T/C endpoint: mean survival time, dose: 25.0 mg/kg/injection, schedule: Q01DX006 (iv), vehicle: clinical formulation) was 141 % of control, the survivor count (T/C endpoint: mean survival time, dose: 40.0 mg/kg/injection, schedule: Q01DX006 (iv), vehicle: clinical formulation) was 5 of 6 and the T/C (T/C endpoint: mean survival time, dose: 40.0 mg/kg/injection, schedule: Q01DX006 (iv), vehicle: saline) was 145 % of control. The survivor count (T/C endpoint: mean survival time, dose: 40.0 mg/kg/injection, schedule: Q01DX Z (ip), vehicle: clinical formulation) was 6 of 6, the T/C [1] was 139 % of control and the survivor count (T/C endpoint: mean survival time, dose: 80.0 mg/kg/injection, schedule: Q01DX006 (iv), vehicle: clinical formulation) was 6 of 6. For the same compound, the survivor count (T/C endpoint: mean survival time, dose: 96.0 mg/kg/injection, schedule: Q01DX Z (ip), vehicle: saline) was 6 of 6.

In the case of `CN/N=C/c1ccccc1`, the survivor count (T/C endpoint: mean survival time, dose: 100.0 mg/kg/injection, schedule: Q01DX009 (ip), vehicle: saline with Tween-80) is reported as 2 of 3, the survivor count (T/C endpoint: mean survival time, dose: 200.0 mg/kg/injection, schedule: Q01DX009 (ip), vehicle: saline with Tween-80) is reported as 0 of 3 and the survivor count (T/C endpoint: mean survival time, dose: 400.0 mg/kg/injection, schedule: Q04DX002 (ip), vehicle: saline with Tween-80) is reported as 0 of 3.

For `CCN(CC)CCNCC(Cc1ccccc1)c1ccccc1` (stereo not given), the survivor count (T/C endpoint: mean survival time, dose: 400.0 mg/kg/injection, schedule: Q04DX002 (ip), vehicle: saline) was 0 of 3.

In the case of `CCCCNC(=O)c1cc(NC(=O)c2ccc(C(=O)Nc3cc(C(=O)NCCCC)cc(C4N=CCN4)c3)cc2)cc(C2=NCCN2)c1` (stereo not given), the survivor count (T/C endpoint: mean survival time, dose: 10.0 mg/kg/injection, schedule: Q01DX015 (ip), vehicle: methylcellulose (MC)) is reported as 6 of 6, the survivor count (T/C endpoint: mean survival time, dose: 125.0 mg/kg/injection, schedule: Q01DX015 (ip), vehicle: methylcellulose (MC)) is reported as 4 of 6 and the survivor count (T/C endpoint: mean survival time, dose: 250.0 mg/kg/injection, schedule: Q01DX015 (ip), vehicle: methylcellulose (MC)) is reported as 0 of 6. The survivor count (T/C endpoint: mean survival time, dose: 500.0 mg/kg/injection, schedule: Q01DX015 (ip), vehicle: methylcellulose (MC)) was 0 of 6.

For `CCN(CC)CCCOC(=O)C(CCC(C)C)c1ccccc1C` (stereo not given), the survivor count (T/C endpoint: mean survival time, dose: 100.0 mg/kg/injection, schedule: Q04DX003 (ip), vehicle: saline) was 3 of 6, the survivor count (T/C endpoint: mean survival time, dose: 200.0 mg/kg/injection, schedule: Q04DX003 (ip), vehicle: saline) was 0 of 6 and the survivor count (T/C endpoint: mean survival time, dose: 400.0 mg/kg/injection, schedule: Q04DX003 (ip), vehicle: saline) was 0 of 6.

In the case of `C[CH2][Pb]([CH2]C)([CH2]C)[O]C(C)=O`, the survivor count (T/C endpoint: mean survival time, dose: 5.0 mg/kg/injection, schedule: Q01DX009 (ip), vehicle: Klucel (hydroxypropylcellulose) (HPC)) is reported as 5 of 6, the survivor count (T/C endpoint: mean survival time, dose: 10.0 mg/kg/injection, schedule: Q01DX009 (ip), vehicle: Klucel (hydroxypropylcellulose) (HPC)) is reported as 0 of 6 and the survivor count (T/C endpoint: mean survival time, dose: 20.0 mg/kg/injection, schedule: Q01DX001 (ip), vehicle: carboxymethylcellulose (CMC)) is reported as 0 of 4. The survivor count (T/C endpoint: mean survival time, dose: 20.0 mg/kg/injection, schedule: Q04DX003 (ip), vehicle: Klucel (hydroxypropylcellulose) (HPC)) was 0 of 6, the survivor count (T/C endpoint: mean survival time, dose: 40.0 mg/kg/injection, schedule: Q01DX001 (ip), vehicle: carboxymethylcellulose (CMC)) was 0 of 4 and the survivor count (T/C endpoint: mean survival time, dose: 50.0 mg/kg/injection, schedule: Q01DX001 (ip), vehicle: carboxymethylcellulose (CMC)) was 0 of 4. For the same compound, the survivor count (T/C endpoint: mean survival time, dose: 80.0 mg/kg/injection, schedule: Q01DX001 (ip), vehicle: carboxymethylcellulose (CMC)) was 0 of 4, the survivor count (T/C endpoint: mean survival time, dose: 100.0 mg/kg/injection, schedule: Q01DX001 (ip), vehicle: carboxymethylcellulose (CMC)) was 0 of 4 and the survivor count (T/C endpoint: mean survival time, dose: 200.0 mg/kg/injection, schedule: Q01DX001 (ip), vehicle: carboxymethylcellulose (CMC)) was 0 of 4. For the same compound, the survivor count (T/C endpoint: mean survival time, dose: 400.0 mg/kg/injection, schedule: Q01DX001 (ip), vehicle: carboxymethylcellulose (CMC)) was 0 of 4.

For `Cc1c2oc3c(C)ccc(C(=O)NC4C(=O)NC(C(C)C)C(=O)N5CCCC5C(=O)N(C)CC(=O)N(C)C(C(C)C)C(=O)OC4C)c3nc-2c(C(=O)NC2C(=O)NC(C(C)C)C(=O)N3CC(=O)CC3C(=O)N(C)CC(=O)N(C)C(C(C)C)C(=O)OC2C)c(N)c1=O` (stereo not given), the T/C (T/C endpoint: median survival time, dose: 50.0 micrograms/kg/injection, schedule: Q01DX001 (ip), vehicle: water) was 126 % of control, the survivor count (T/C endpoint: median survival time, dose: 50.0 micrograms/kg/injection, schedule: Q01DX009 (ip), vehicle: water) was 9 of 10 and the T/C (T/C endpoint: median survival time, dose: 75.0 micrograms/kg/injection, schedule: Q04DX003 (ip), vehicle: water) was 129 % of control. For the same compound, the T/C (T/C endpoint: median survival time, dose: 100.0 micrograms/kg/injection, schedule: Q01DX001 (ip), vehicle: water) was 126 % of control, the survivor count (T/C endpoint: median survival time, dose: 100.0 micrograms/kg/injection, schedule: Q01DX009 (ip), vehicle: water) was 0 of 10 and the survivor count (T/C endpoint: median survival time, dose: 150.0 micrograms/kg/injection, schedule: Q04DX003 (ip), vehicle: water) was 10 of 10. The survivor count (T/C endpoint: median survival time, dose: 200.0 micrograms/kg/injection, schedule: Q01DX001 (ip), vehicle: water) was 2 of 10, the survivor count (T/C endpoint: median survival time, dose: 300.0 micrograms/kg/injection, schedule: Q04DX003 (ip), vehicle: water) was 0 of 10 and the survivor count (T/C endpoint: median survival time, dose: 400.0 micrograms/kg/injection, schedule: Q01DX001 (ip), vehicle: water) was 1 of 10. For the same compound, the survivor count (T/C endpoint: median survival time, dose: 600.0 micrograms/kg/injection, schedule: Q04DX003 (ip), vehicle: water) was 2 of 10, the survivor count (T/C endpoint: median survival time, dose: 800.0 micrograms/kg/injection, schedule: Q01DX001 (ip), vehicle: water) was 1 of 10 and the survivor count (T/C endpoint: median survival time, dose: 1600.0 micrograms/kg/injection, schedule: Q01DX001 (ip), vehicle: water) was 1 of 10.

In the case of `CC1c2cc(O)c(O)cc2CCN1C` (stereo not given), the survivor count (T/C endpoint: mean survival time, dose: 300.0 mg/kg/injection, schedule: Q01DX001 (ip), vehicle: saline) is reported as 1 of 6.

In the case of `N=C(N)c1cccc(NC(=O)c2ccc(C(=O)Nc3cccc(C(=N)N)c3)c(N)c2)c1`, the T/C (T/C endpoint: mean survival time, dose: 40.0 mg/kg/injection, schedule: Q01DX Z (ip), vehicle: carboxymethylcellulose (CMC)) is reported as 135 % of control.

With `CN(C1=CC(=O)C(N(C)C2CCCCC2)=CC1=O)C1CCCCC1` the survivor count (T/C endpoint: mean survival time, dose: 30.0 mg/kg/injection, schedule: Q01DX009 (ip), vehicle: saline) was 4 of 6.

In the case of `ClC12CC3CC(CC(C3)C1)C2`, the survivor count (T/C endpoint: mean survival time, dose: 100.0 mg/kg/injection, schedule: Q01DX009 (ip), vehicle: acetone) is reported as 6 of 6 and the survivor count (T/C endpoint: mean survival time, dose: 400.0 mg/kg/injection, schedule: Q01DX009 (ip), vehicle: acetone) is reported as 6 of 6.

With `O=C1CSC(c2ccccc2)N1` (stereo not given) the T/C (T/C endpoint: mean survival time, dose: 100.0 mg/kg/injection, schedule: Q04DX003 (ip), vehicle: Klucel (hydroxypropylcellulose) (HPC)) was 134 % of control.

`CCCCCCCCCCCCN=c1nc(N)ccn1C1OC(CO)C(O)C1O` (stereo not given) was tested, and the survivor count (T/C endpoint: mean survival time, dose: 50.0 mg/kg/injection, schedule: Q01DX005 (ip), vehicle: saline) was 0 of 7, the survivor count (T/C endpoint: mean survival time, dose: 100.0 mg/kg/injection, schedule: Q01DX005 (ip), vehicle: saline) was 0 of 6 and the survivor count (T/C endpoint: mean survival time, dose: 200.0 mg/kg/injection, schedule: Q01DX005 (ip), vehicle: saline) was 0 of 6.

For `NC(=O)CCC(N)C(=O)O` (stereo not given), the survivor count (T/C endpoint: mean survival time, dose: 12.5 mg/kg/injection, schedule: Q01DX009 (ip), vehicle: saline) was 3 of 3, the survivor count (T/C endpoint: mean survival time, dose: 25.0 mg/kg/injection, schedule: Q01DX009 (ip), vehicle: saline) was 3 of 3 and the survivor count [1] was 0 of 3. The survivor count (T/C endpoint: mean survival time, dose: 100.0 mg/kg/injection, schedule: Q01DX009 (ip), vehicle: saline) was 0 of 3 and the survivor count (T/C endpoint: mean survival time, dose: 200.0 mg/kg/injection, schedule: Q01DX009 (ip), vehicle: saline) was 0 of 3.

In the case of `ClCc1ccncc1`, the survivor count (T/C endpoint: mean survival time, dose: 400.0 mg/kg/injection, schedule: Q01DX009 (ip), vehicle: saline) is reported as 0 of 6.

`Cc1cccc(C)c1NC(=O)NCc1ccco1` was tested, and the survivor count (T/C endpoint: mean survival time, dose: 200.0 mg/kg/injection, schedule: Q04DX002 (ip), vehicle: Klucel (hydroxypropylcellulose) (HPC)) was 2 of 3 and the survivor count (T/C endpoint: mean survival time, dose: 400.0 mg/kg/injection, schedule: Q04DX002 (ip), vehicle: Klucel (hydroxypropylcellulose) (HPC)) was 0 of 3.

In the case of `CN=C(N/N=C(C)\C=N\NC(=NC)N(C)C)N(C)C`, the survivor count (T/C endpoint: mean survival time, dose: 480.0 mg/kg/injection, schedule: Q01DX Z (ip), vehicle: saline) is reported as 1 of 6 and the survivor count (T/C endpoint: mean survival time, dose: 480.0 mg/kg/injection, schedule: Q01DX Z (oral), vehicle: saline) is reported as 2 of 6.
